Measurements from “University of Dundee, Small-Polar-MMV Screening Library” (2021), ChEMBL document CHEMBL3988442.

Chains of the proteins cited; added tags and fusions are not shown. Residues count along the entry.
UniProt P9WNZ1, whole entry: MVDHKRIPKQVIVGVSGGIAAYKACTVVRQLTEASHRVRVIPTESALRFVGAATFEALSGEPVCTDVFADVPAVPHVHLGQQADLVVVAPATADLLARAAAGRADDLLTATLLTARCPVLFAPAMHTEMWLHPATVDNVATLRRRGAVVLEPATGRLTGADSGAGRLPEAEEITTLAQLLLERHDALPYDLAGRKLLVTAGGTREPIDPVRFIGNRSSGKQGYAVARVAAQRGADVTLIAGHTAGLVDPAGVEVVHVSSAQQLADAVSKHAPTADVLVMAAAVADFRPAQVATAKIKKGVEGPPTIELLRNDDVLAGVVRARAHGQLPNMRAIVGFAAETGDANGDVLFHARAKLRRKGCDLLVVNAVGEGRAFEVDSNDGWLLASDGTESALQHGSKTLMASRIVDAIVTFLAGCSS
UniProt I6X8D2, whole entry: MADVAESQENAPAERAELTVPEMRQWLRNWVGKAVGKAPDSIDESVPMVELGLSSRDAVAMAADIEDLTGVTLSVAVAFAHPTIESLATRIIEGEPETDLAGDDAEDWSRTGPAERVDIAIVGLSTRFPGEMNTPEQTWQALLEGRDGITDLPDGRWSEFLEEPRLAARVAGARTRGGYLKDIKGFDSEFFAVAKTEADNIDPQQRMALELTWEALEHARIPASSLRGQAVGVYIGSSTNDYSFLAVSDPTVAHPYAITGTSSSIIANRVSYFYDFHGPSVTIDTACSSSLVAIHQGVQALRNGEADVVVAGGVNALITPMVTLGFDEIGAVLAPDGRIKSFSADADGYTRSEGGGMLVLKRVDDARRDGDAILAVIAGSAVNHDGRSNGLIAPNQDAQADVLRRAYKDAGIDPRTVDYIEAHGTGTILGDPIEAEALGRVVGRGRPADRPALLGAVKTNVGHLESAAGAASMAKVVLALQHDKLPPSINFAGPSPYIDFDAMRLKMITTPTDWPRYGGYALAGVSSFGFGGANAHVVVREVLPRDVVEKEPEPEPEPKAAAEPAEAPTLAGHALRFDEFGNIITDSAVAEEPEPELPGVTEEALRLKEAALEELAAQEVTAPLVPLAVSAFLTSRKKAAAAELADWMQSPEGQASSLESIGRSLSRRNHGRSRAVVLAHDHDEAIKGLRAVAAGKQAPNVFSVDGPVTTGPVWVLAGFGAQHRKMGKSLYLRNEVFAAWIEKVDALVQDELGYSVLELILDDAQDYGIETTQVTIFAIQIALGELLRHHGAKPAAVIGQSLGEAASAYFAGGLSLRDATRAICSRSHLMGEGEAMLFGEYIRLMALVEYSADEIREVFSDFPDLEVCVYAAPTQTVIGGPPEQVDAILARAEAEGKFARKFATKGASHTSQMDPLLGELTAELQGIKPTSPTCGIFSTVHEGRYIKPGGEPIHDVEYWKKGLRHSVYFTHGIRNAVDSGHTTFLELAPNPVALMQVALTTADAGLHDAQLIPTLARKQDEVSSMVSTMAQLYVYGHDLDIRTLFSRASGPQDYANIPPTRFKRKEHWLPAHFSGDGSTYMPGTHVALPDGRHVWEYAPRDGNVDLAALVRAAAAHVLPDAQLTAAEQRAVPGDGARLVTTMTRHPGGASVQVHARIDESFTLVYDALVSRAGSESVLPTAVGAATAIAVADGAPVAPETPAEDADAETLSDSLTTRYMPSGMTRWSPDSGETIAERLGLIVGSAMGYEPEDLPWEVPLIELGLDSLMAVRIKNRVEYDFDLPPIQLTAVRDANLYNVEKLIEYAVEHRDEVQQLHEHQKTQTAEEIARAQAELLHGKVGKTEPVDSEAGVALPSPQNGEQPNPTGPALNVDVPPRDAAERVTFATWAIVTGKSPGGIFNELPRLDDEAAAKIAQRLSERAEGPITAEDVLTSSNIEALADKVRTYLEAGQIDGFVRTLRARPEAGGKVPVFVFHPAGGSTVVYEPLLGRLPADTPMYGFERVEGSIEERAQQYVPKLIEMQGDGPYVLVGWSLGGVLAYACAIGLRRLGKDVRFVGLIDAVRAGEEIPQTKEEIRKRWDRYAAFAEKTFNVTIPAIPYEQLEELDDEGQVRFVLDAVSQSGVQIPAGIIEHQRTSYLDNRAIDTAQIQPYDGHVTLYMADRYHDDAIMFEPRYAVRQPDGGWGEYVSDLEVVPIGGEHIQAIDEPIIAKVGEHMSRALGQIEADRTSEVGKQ
UniProt P9WPC5, whole entry: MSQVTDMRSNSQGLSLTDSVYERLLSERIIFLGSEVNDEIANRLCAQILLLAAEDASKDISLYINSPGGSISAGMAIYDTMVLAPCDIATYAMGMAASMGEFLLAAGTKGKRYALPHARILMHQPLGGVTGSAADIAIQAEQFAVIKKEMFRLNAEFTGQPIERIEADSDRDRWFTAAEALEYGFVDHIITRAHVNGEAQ
UniProt P9WPC3, whole entry partner: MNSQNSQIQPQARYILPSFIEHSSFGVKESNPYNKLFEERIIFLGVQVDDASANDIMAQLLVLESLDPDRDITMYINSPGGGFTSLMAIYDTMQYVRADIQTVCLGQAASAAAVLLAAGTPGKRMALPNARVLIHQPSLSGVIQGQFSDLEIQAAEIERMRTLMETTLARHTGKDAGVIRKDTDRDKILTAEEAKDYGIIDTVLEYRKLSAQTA
UniProt Q4DA54, 1-478: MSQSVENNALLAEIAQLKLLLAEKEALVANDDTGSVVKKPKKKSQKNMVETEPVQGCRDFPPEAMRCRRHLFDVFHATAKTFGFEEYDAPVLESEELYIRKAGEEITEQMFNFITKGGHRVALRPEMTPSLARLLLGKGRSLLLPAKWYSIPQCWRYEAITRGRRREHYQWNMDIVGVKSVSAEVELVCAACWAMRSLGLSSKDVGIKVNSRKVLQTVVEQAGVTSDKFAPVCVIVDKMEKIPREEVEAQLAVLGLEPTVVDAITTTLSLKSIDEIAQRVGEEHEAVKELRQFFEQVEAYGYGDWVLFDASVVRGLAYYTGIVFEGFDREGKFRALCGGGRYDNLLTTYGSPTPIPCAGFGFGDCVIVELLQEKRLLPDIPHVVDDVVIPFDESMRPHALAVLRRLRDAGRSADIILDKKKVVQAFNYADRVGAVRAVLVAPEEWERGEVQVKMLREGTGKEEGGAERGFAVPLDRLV

Each number is a percent effect as filed.
How 0% and 100% were set is not recorded. Most values in the screen are low, and negative values occur.
The compounds are a random part of those screened.
Two or more numbers in one place are separate tests of the same structure; such repeats can differ widely.
A dash means the value is not listed here; it may have been measured.

A: 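Coenzyme A biosynthesis protein CoaBC, Mycobacterium tuberculosis (UniProt P9WNZ1). Enzyme assay of CoaBC with a phosphate dye (Biomol Green) read at 650 nm. Concentration: 30 µM. Direction is inferred from only a few compounds that gave an IC50; most scored high, so higher reads as stronger inhibition. Most strong results did not repeat in a second test. Of about 67,000 compounds tested this way, about 40 (0.06%) reached 50% or more in at least one test.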
B: 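Cell assay of Leishmania donovani living inside macrophages; the read-out is not stated. Concentration: 30 µM. Higher reads as stronger inhibition (inferred: compounds with an IC50 in retests scored well above the rest). Of about 69,000 compounds tested this way, about 1,000 (1.5%) reached 50% or more in at least one test.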
C: 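Polyketide synthase Pks13, Mycobacterium tuberculosis (UniProt I6X8D2). Enzyme assay of the thioesterase domain of polyketide synthase 13; the read-out is not stated. Tested at 30 µM. Higher reads as stronger inhibition (inferred from which compounds were picked for retests). Size under these conditions: about 67,000 compounds, about 300 of them at 50% or above in at least one test.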
D: 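ClpP1P2, Mycobacterium tuberculosis (UniProt P9WPC5 and UniProt P9WPC3). Protease assay of ClpP1P2, read by the AMC dye that it sets free. Concentration: 50 µM. Direction is inferred from only a few compounds that gave an IC50; most scored high, so higher reads as stronger inhibition. Most other retested compounds had strongly negative values. Of about 69,000 compounds tested this way, about 10 (0.015%) reached 50% or more in at least one test.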
E: 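Enzyme assay of histidyl-tRNA synthetase; the read-out is not stated. Target: Histidine-tRNA ligase, Trypanosoma cruzi CL Brener (UniProt Q4DA54). Concentration: 30 µM. The record gives no direction; compounds that gave an IC50 in retests scored well above the rest, so higher reads as stronger inhibition. Of about 69,000 compounds tested this way, about 31 (0.045%) reached 50% or more in at least one test.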

Compound	A	B	C	D	E
O=S(=O)(NC[C@H]1C[C@@H]2CCN1C[C@@H]2CN1CCCCC1)c1ccccc1	-11.51%	-	-40.7%	-6.495%	4.95%
CCCn1nnnc1COc1ccc(C(=O)OC)cc1	2.417%	-2.522%	-1.545%	-5.64%	5.288%
COCCN1CC[C@H](OC)[C@@H]1Cc1ccccc1	5.764%	-	-5.191%	18.31%	0%
Cc1cc(C(F)(F)F)nn1C(C)C(=O)Nc1ccncc1 (centres unmarked)	9.017%	23.55%	-29.53%	14.66%	2.732%
CNS(=O)(=O)c1ccc(CNC(=O)N2CCOC(C)C2)cc1 (centres unmarked)	7.393%	-7.645%	-11.4%	13.09%	-1.667%
COCCN1CCO[C@@H]2CN(Cc3ccc(C)s3)C[C@@H]2C1	-	-	-27.73%	-3.638%	5.063%
CS(=O)(=O)Cc1cc(F)ccc1NCc1nnsc1Cl	-2.335%	-4.772%	0.02588%	-3.523%	5%
Cn1cc(CN2CCc3ncn(C)c3C2COCc2cccnc2)cn1 (centres unmarked)	-1.613%	5.877%	-36.24%	-11.13%	6.468%
COCCN1CCC(NC(=O)NCC2(c3cccc(F)c3)CC2)C1 (centres unmarked)	5.134%	32.53%	-14.61%	-12.66%	2.062%
O=C(CCc1nccs1)N1CCN(c2nccs2)CC1	4.439%	16.65%	-0.09361%	-17.37%	1.458%
COc1cc(C(=O)NC(CC(=O)O)c2cccs2)cc(OC)c1C (centres unmarked)	6.997%	-1.835%	-12.7%	-7.258%	0%
CC1CCN(CC2CCCN(C(=O)Nc3ccccn3)C2)CC1 (centres unmarked)	2.479%	18.3%	-46.9%	1.319%	3.804%
Cn1cnc(-c2ccc(F)cc2)c1NC(=O)CCNC(=O)C(C)(C)C	6.483%	8.099%	-29.22%	2.693%	2.02%
Cc1occc1C(=O)N1CCC[C@]2(C[C@@H](OCc3ccccn3)CO2)C1.O=C(O)C(F)(F)F	-	18.4%	-	-	-
Fc1ccc(CN2CCCC(c3nnc(-c4cnccn4)o3)C2)cc1F (centres unmarked)	-6.944%	-9.661%	0.1232%	-4.776%	-1.622%
COc1ccc(CNC(Cc2ccsc2)c2ncccc2C)cc1OC (centres unmarked)	-0.5256%	25.36%	-6.073%	1.381%	9.848%
Cc1ccc(C)c(OCCNC(=O)C2CCOC2)c1 (centres unmarked)	4.225%	1.489%	-29.8%	-4.988%	6.18%
O=C(NCCc1cccs1)[C@H]1CO[C@H]2CCNC[C@H]2C1	2.057%	-	-19.04%	4.8%	2.762%
COCc1cncc2c1CCN(C(=O)c1cccc(C#N)c1)C2.O=C(O)C(F)(F)F	-	21.48%	-	-	-
CCN(CC)C(=O)[C@@H]1C[C@H](N)CN1c1noc(-c2ccccc2)n1	-5.244%	34.33%	-43.98%	0.1926%	13.86%
N#CC1(NC(=O)c2ccc(F)cc2OC(F)F)CCOCC1	1.656%	25.47%	-21.8%	-1.074%	2.762%
CCn1cc(-c2cncn2CCc2ccc3c(c2)OCCO3)cn1.Cl	-	5.162%	-	-	-
CC(C)c1noc(-c2ccc(NCCCN3CCCC(O)C3)nc2)n1 (centres unmarked)	-3.083%	40.08%	-	-12.04%	1.754%
COCCN1CCC2(CC1)CCN(Cc1ccccn1)CC2.O=C(O)C(F)(F)F.O=C(O)C(F)(F)F	-	-119.2%	-	-	-
CN(C)Cc1nnc2n1CCN(c1cnccn1)CC2.O=C(O)C(F)(F)F	-	-49.07%	-	-	-
CCC(Nc1nc(C)nc2c1cnn2C)c1ncnn1CC (centres unmarked)	11%	26.92%	-3.592%	-8.33%	5.464%
Cc1nc(-c2cccc(C(=O)N(C)C)c2)cs1	5.353%	2.244%	-39.48%	-0.776%	3.665%
COc1ccsc1C(=O)NCCN1CCOCC1	-3.222%	3.014%	-7.059%	-19.77%	1.042%
COc1cccc(CNc2c(O)c(=O)c2=O)c1	4.051%	-7.732% and 13.45%	-12.5%	-16.94%	7.317%
COc1ccc(CNC(C)c2cnc3cc(C)nn3c2C)cc1 (centres unmarked)	3.64%	11.48%	-19.73%	-6%	2.618%
Cn1cc(S(=O)(=O)N2CCN(S(=O)(=O)c3ccc(Br)s3)CC2)cn1	7.282%	8.813%	-0.4505%	-14.89%	1.98%
CCNc1nc(C)c(C(=O)N(C)Cc2nc(-c3ccncc3)no2)s1	-2.675%	23.65%	7.58%	0.4375%	4.712%
Oc1cccc(CN2CCN(C3CCc4ccccc4C3)CC2)c1 (centres unmarked)	10.12%	-0.7744%	-42.04%	18.07%	6.468%
CC(NC(=O)NCCCn1cncn1)c1ccccc1Cl (centres unmarked)	3.52%	-19.77%	2.353%	-8.369%	1.887%
CCn1nc(C)c2ncnc(N(C)C)c21	0.7282%	-9.042%	-4.563%	25.55%	9.901%
O=C(O)c1cnc(N2CCC(O)CC2)nc1COc1cccc(F)c1	-12.24%	42.56%	-9.05%	2.14%	11.92%
Cn1ncc(N2CCC(CNC3Cc4ccccc4C3)C2)cc1=O (centres unmarked)	6.813%	-8.072%	-4.781%	-6.193%	7.216%
COc1ccc(N2CCN(C(=O)CCn3nccc3C)C(C)C2)cc1 (centres unmarked)	5.372%	13.35%	-4.391%	-6.958%	10.98%
O=C(c1ccccc1O)N1CCN(C(=O)C2CCC2)CC1	1.648%	-19.06%	-8.604%	-4.938%	1.293%
COCC(=O)N1CCO[C@]2(CCC[C@H]2COC)C1	-0.6188%	-9.481%	-45.26%	10.18%	5.528%
CCC(CC)CNC(=O)N(C)C(C)c1ccccn1 (centres unmarked)	6.612%	6.115%	7.172%	-6.518%	-5.202%
CC(c1ccncc1)N(C)S(C)(=O)=O (centres unmarked)	-11.65%	18.12%	-22.76%	-9.875%	9.392%
CC(CC(=O)Nc1ncn(CC(=O)N2CCCCCC2)n1)C1CC1 (centres unmarked)	-6.21%	6.468%	-37.58%	7.434%	4.712%
Cc1nc(N2CCCC2C(=O)NC(C)(C)CO)nc2ccccc12 (centres unmarked)	-19.42%	21.35%	3.532%	-89.86%	2.717%
COc1cccc2cc(CNCc3ccnc(N4CCCCC4)c3)oc12	-2.193%	33.98%	29.11%	5.631%	15.12%
CS(=O)(=O)Nc1ccn(Cc2cccc(Cl)c2)n1	9.7%	1.014%	-5.683%	-2.594%	-0.8696%
CCN(C(=O)NCCc1ccccc1Cl)C(C)CS(C)(=O)=O (centres unmarked)	-	-19.51%	32.17%	-0.4152%	2.632%
Cc1ccc(C)c(C(=O)N2CCC3(CCC(=O)N(CC(N)=O)C3)CC2)c1	-0.5102%	23.58%	-3.525%	-2.415%	1.339%
CCC(O)Cn1nc(CCSC)nc1-c1ccc2c(c1)OCCO2 (centres unmarked)	2.258%	-26.31%	9.965%	-5.429%	-1.478%
CC(C)CN1C[C@@H]2CN(c3cnccn3)C[C@@H]2C1=O	-4.433%	-	-35.19%	-5.901%	-3.093%
CN1CCN(CCCNC(=O)c2cc(Cl)c3c(c2)OCO3)CC1	-30.8%	23.47%	1.49%	-2.035%	3.252%
CNC(=O)[C@@H]1C[C@@H](NC(=O)CCCc2cccs2)CN1C1CCOCC1	-2.828%	14.18%	-	-8.413%	10.06%
COc1cccc(CNc2nc(O)cc(C3CC(=O)N(C)C3)n2)c1 (centres unmarked)	-7.778%	10.52%	-43.05%	5.802%	5.946%
Cc1c(C)n(Cc2ccccn2)c2nc3c(c(N)c12)CCCCCC3	9.596%	8.308%	-67.63%	-0.4111%	-0.5848%
O=C(Nc1ccncc1)NC1CCN(c2ccccc2OC(F)F)C1 (centres unmarked)	-2.822%	-12.38%	-10.46%	1.355%	11.11%
Nc1ccnc(N2CCC(CCc3ccccc3)(C(=O)O)CC2)n1	7.692%	-17.48%	1.179%	1.073%	3.093%

The last 4 entries again:

| Compound | A | B | C | D | E |
|---|---|---|---|---|---|
| `COc1cccc(CNc2nc(O)cc(C3CC(=O)N(C)C3)n2)c1` (centres unmarked) | -7.778% | 10.52% | -43.05% | 5.802% | 5.946% |
| `Cc1c(C)n(Cc2ccccn2)c2nc3c(c(N)c12)CCCCCC3` | 9.596% | 8.308% | -67.63% | -0.4111% | -0.5848% |
| `O=C(Nc1ccncc1)NC1CCN(c2ccccc2OC(F)F)C1` (centres unmarked) | -2.822% | -12.38% | -10.46% | 1.355% | 11.11% |
| `Nc1ccnc(N2CCC(CCc3ccccc3)(C(=O)O)CC2)n1` | 7.692% | -17.48% | 1.179% | 1.073% | 3.093% |